Reference: paper PMC8033486 (Frontiers in Pharmacology, 2021)

Experiment: in vitro
Details: African green monkey, CC50, Vero E6, no virus

CC(C)c1c(C(=O)Nc2ccccc2)c(-c2ccccc2)c(-c2ccc(F)cc2)n1CC[C@@H](O)C[C@@H](O)CC(=O)O [Atorvastatin]
CC50 at 3 days: > 20 µM
